Reference: PubChem BioAssay AID1487 (National Center for Advancing Translational Sciences (NCATS), 2009)
The other results are listed elsewhere or left out. Further columns of the screen follow, without active or inactive calls. Compounds called inactive in the main read-out are mostly missing here. Words in brackets tell the shape of the fitted curve; partial curves, single points and poor fits give uncertain potencies.

Test: qHTS Assay for Modulators of Lamin A Splicing
Settings: HeLa LMNA splicing GFP/RFP minigene ratio, 48 h
Procedure, shortened: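 Read-out is the ratio of GFP to DsRed2 object intensity, acquired by 488 nm laser-scanning cytometry on HeLa lamin A-EGFP minigene reporter cells. Compound incubation 48 hrs at 37 °C in Opti-MEM with 2% FBS; DMSO 0.5% final.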

[1] = measured here: RFP viability control channel
[2] = measured here: GFP splicing reporter channel

| SMILES | AC50 [1] | AC50 [2] |
| --- | --- | --- |
| CN(C)c1ccc(NS(=O)(=O)c2cccc(Cl)c2)cc1 | 8.91 µM [rising, partial curve] |  |
| Cc1cc(C)n(CCc2nc(-c3cc4ccccc4o3)cs2)n1 | 11.2 µM [rising, partial curve] | 3.98 µM [rising, single point] |
| CCc1nnc(NC(=O)CSc2nccn2-c2cc(C)cc(C)c2)s1 | 31.6 µM [rising, single point] |  |
| O=C1/C(=C/c2ccccc2)Oc2cc(OC(=O)N3CCOCC3)ccc21 | 0.316 µM [rising, full curve, poor fit] | 1.78 µM [rising, partial curve, poor fit] |
| O=C(Nc1nc(-c2ccc(F)c(F)c2)cs1)c1ccc(OCC2CCCO2)cc1 (centres undefined) | 5.62 µM [rising, partial curve] | 5.62 µM [rising, partial curve] |
| COc1ccc(CNC(=O)C(C(C)C)N2Cc3ccccc3C2=O)cc1 (centres undefined) | 0.0355 µM [rising, full curve, poor fit] | 0.0355 µM [rising, full curve, poor fit] |
| Cc1ccc(CC(=O)NCc2ccc(F)cc2)cc1 | 2.82 µM [rising, full curve] |  |
| Cc1ccc(C)c(NC(=O)c2cc(S(=O)(=O)NCCC3=CCCCC3)ccc2F)c1 | 1.41 µM [falling, full curve, poor fit] | 0.0126 µM [falling, full curve, poor fit] |
| O=C(CN1CCN(c2ccccn2)CC1)N1c2ccccc2CCc2ccccc21 | 12.6 µM [rising, partial curve, poor fit] |  |
| O=C(N/N=C/c1ccc(Br)o1)c1cc([N+](=O)[O-])cc([N+](=O)[O-])c1 | 0.00501 µM [falling, full curve, poor fit] | 0.00501 µM [falling, full curve, poor fit] |
| CCC(=O)Nc1cc(ON=C(C)C)cc([N+](=O)[O-])c1 |  | 12.6 µM [rising, single point] |
| O=C(C1CCCN(S(=O)(=O)c2cnc[nH]2)C1)N1CCN(c2ccc(Cl)cc2)CC1 (centres undefined) | 15.8 µM [rising, partial curve] | 2.82 µM [rising, partial curve] |
| Cc1ccc(NC(=O)CN(C)S(=O)(=O)c2cccc3nsnc23)cc1C | 31.6 µM [rising, single point] |  |
| Cc1cccc(CNc2ccnc(-c3cccc(C#N)c3)n2)c1 | 17.8 µM [falling, partial curve] | 12.6 µM [falling, partial curve] |
| Cc1cccc(-n2nnnc2S(C)(=O)=O)c1 | 7.94 µM [falling, partial curve, poor fit] | 1.41 µM [falling, full curve, poor fit] |
| CCOc1ccc(-c2cc(CCCC(=O)N3CCN(c4ccc(OC)cc4)CC3)no2)cc1 | 14.1 µM [rising, partial curve] | 11.2 µM [rising, single point] |
| CCOC(=O)c1c(CSc2cccs2)n(C)c2cc(Br)c(O)c(CN(C)C)c12 | 0.0112 µM [rising, full curve, poor fit] |  |
| CCOC(=O)/C(=N\Nc1ccccc1)S(=O)(=O)c1ccccc1 | 31.6 µM [rising, single point] | 17.8 µM [rising, single point] |
| O=C(NCCCn1ccnc1)c1cc(-c2cccs2)on1 | 35.5 µM [falling, single point] | 3.98 µM [rising, single point] |
| CCN(CC(=O)Nc1ccc2c(c1)OCCO2)c1nc(-c2cccnc2)nc2ccccc12 | 17.8 µM [rising, partial curve, poor fit] |  |
| O=C1c2ccccc2C(=O)c2c1ncn2-c1ccccc1 | 35.5 µM [rising, single point] |  |
| CCn1c(C)cc(/C=C2/NC(=O)N(c3ccccc3)C2=O)c1C | 7.08 µM [falling, partial curve, poor fit] |  |
| CC(=O)N1CCCc2cc(S(=O)(=O)N(C)CC(=O)Nc3ccc(Cl)cc3C)ccc21 | 0.1 µM [falling, full curve, poor fit] | 1.58 µM [falling, partial curve, poor fit] |
| CCc1ccc(C(C(=O)NC2CCCC2)N(C(=O)/C=C/C(=O)Nc2cc(C)on2)c2ccccc2C)cc1 (centres undefined) | 0.00708 µM [rising, full curve, poor fit] | 25.1 µM [falling, single point] |
| N=C(N)c1ccc2cc(OC(=O)c3ccc(N=C(N)N)cc3)ccc2c1 | 0.00891 µM [falling, full curve, poor fit] | 0.01 µM [falling, full curve, poor fit] |

2 of these compounds in another layout:
O=C(NCCCn1ccnc1)c1cc(-c2cccs2)on1
  AC50 [1]: 35.5 µM [falling, single point]
  AC50 [2]: 3.98 µM [rising, single point]
CCN(CC(=O)Nc1ccc2c(c1)OCCO2)c1nc(-c2cccnc2)nc2ccccc12
  AC50 [1]: 17.8 µM [rising, partial curve, poor fit]

The list goes on:

| SMILES | AC50 [1] | AC50 [2] |
| --- | --- | --- |
| Cc1ccc(-c2noc(CCC(=O)NC3CCCc4ccccc43)n2)cc1 (centres undefined) |  | 2 µM [rising, partial curve] |
| COc1ccc2cc(C3CC(c4cccs4)=NN3S(C)(=O)=O)c(Cl)nc2c1 (centres undefined) | 17.8 µM [rising, single point] |  |
| CN(C)CCNc1nc2c(c(=O)[nH]c(=O)n2C)n1CC(O)COc1ccc(Cl)cc1Cl (centres undefined) | 1.41 µM [rising, partial curve, poor fit] |  |
| Cc1nc2c(C(=O)NC(C)c3ccccc3)cnn2c(C)c1Cc1ccccc1 (centres undefined) | 22.4 µM [falling, partial curve] | 14.1 µM [falling, partial curve] |
| COc1ccccc1CC(=O)Nc1ccc(-c2nnc(-c3ccco3)o2)cc1 | 22.4 µM [rising, single point] |  |
| COc1ccccc1CNC(=O)COC(=O)c1cnccn1 | 0.501 µM [falling, single point] |  |
| CCNc1ncc2nc(-c3cn(C)c4ccccc34)c(=O)n(-c3ccc(OC)cc3)c2n1 | 3.98 µM [falling, partial curve, poor fit] | 5.01 µM [falling, partial curve, poor fit] |
| CCC(=O)Nc1nnc(S(=O)(=O)N2CCc3ccccc32)s1 | 25.1 µM [falling, partial curve] | 17.8 µM [falling, single point] |
| CCOC(=O)c1ccc(NC(=O)Cn2cc(C(=O)c3ccc(Cl)cc3)c(=O)c3ccc(C)nc32)cc1 | 3.55 µM [rising, partial curve] | 5.62 µM [rising, single point] |
| CN(Cc1nc(Cc2ccccc2F)no1)Cc1cccc2ncccc12 | 0.0158 µM [falling, full curve, poor fit] | 0.0251 µM [falling, full curve, poor fit] |
| C(=N/Nc1nc(-c2ccccc2)cc(-c2ccccc2)n1)/c1cccnc1 | 25.1 µM [rising, partial curve, poor fit] |  |
| CN1CCN(c2ncnc3ccc(-c4ccccc4Cl)cc23)CC1 | 7.94 µM [falling, partial curve, poor fit] | 11.2 µM [falling, partial curve, poor fit] |
| COc1cc(C(=O)/C=C/Nc2ccc(NC(C)=O)cc2)cc(OC)c1OC | 0.224 µM [falling, full curve, poor fit] | 0.178 µM [falling, full curve, poor fit] |
| CCOC(=O)c1sc(=NC(=O)c2ccc(S(=O)(=O)N3CC(C)OC(C)C3)cc2)n(C)c1C (centres undefined) | 3.98 µM [falling, single point] | 3.98 µM [falling, single point] |
| CCCCN(CCCC)CCNC(=O)CSCc1ccc(C)cc1 | 0.141 µM [rising, full curve] |  |
| O=C(O)COc1ccc2c3c(c(=O)oc2c1)CCCC3 |  | 5.62 µM [rising, single point] |
| CCOCCCn1c(SCC(=O)Nc2ccc(OC)cc2OC)nc2ccccc2c1=O | 1.26 µM [falling, partial curve] | 2.24 µM [falling, partial curve] |
| COc1cc(/C=C2\SC(=S)NC2=O)ccc1OS(=O)(=O)c1ccccc1 | 20 µM [rising, single point] | 11.2 µM [rising, single point] |
| CC1CCN(c2ncnc3c2cnn3Cc2ccc(Cl)cc2)CC1 | 31.6 µM [rising, single point] | 31.6 µM [rising, single point] |
| Cc1cccc(-n2c(O)c(C=Nc3ccc(O)cc3)c3ccccc3c2=O)n1 | 10 µM [rising, partial curve] | 11.2 µM [rising, partial curve] |
| CCOC(=O)C1(Cc2ccc(Cl)cc2)CCN(C(=O)c2sc(C)nc2C)CC1 | 3.98 µM [falling, full curve] | 2.51 µM [falling, full curve] |
| Cc1ccc(-c2nc3s/c(=C\c4ccco4)c(=O)n3n2)cc1 | 0.794 µM [rising, full curve, poor fit] |  |
| CCOC(=O)N1CCN(Cc2nc(Cc3cccc(F)c3)no2)CC1 | 0.501 µM [falling, single point] | 0.355 µM [falling, partial curve, poor fit] |
| O=C(CSc1n[nH]c(-c2ccncc2)n1)c1ccccc1 | 15.8 µM [rising, partial curve] |  |
| O=C(Nc1cc(Cl)ccc1O)c1cc2n(n1)C(C(F)(F)F)CC(c1ccc3c(c1)OCO3)N2 (centres undefined) | 3.98 µM [rising, partial curve] |  |
